Source: article PMC4548153
No constants are given. Whether binding was seen depends on the method and setting. Binding seen in cells or lysates may run through a third protein. Some results given as binding are weak or reduced against the parent protein; the word gives no strength. Blank lines part the entries; values can stand above or below the substance they belong to.

Amino acid sequences for entries named in this document (tags omitted). A change or cut given only in a name is not applied to a line headed by its entry. Chains listed by the source or under a name are the forms on record and can include a tag or linker.
UniProt Q9UKV8: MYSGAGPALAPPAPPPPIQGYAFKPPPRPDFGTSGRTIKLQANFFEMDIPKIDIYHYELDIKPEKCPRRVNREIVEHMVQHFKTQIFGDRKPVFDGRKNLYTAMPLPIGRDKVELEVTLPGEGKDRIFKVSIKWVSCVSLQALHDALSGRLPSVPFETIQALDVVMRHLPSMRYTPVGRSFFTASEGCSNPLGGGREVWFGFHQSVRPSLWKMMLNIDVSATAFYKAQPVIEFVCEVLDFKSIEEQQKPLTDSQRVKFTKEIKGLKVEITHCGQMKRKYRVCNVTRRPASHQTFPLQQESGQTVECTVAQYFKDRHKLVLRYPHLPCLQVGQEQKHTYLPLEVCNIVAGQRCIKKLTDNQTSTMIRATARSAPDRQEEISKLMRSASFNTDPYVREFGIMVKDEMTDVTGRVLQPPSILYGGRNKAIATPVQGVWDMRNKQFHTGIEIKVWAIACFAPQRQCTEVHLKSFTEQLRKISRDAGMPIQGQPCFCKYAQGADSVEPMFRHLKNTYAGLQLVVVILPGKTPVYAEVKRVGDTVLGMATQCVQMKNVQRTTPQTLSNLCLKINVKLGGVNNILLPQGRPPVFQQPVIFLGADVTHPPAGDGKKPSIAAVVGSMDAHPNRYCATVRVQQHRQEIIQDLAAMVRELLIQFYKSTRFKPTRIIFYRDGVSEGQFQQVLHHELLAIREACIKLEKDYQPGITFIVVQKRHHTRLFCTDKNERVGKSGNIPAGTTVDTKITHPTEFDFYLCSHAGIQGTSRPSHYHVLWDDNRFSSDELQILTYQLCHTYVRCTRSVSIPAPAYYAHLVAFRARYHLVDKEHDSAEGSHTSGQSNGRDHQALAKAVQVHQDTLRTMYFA
Myc/His-tagged hnRNP A2 (O88569-2, form named): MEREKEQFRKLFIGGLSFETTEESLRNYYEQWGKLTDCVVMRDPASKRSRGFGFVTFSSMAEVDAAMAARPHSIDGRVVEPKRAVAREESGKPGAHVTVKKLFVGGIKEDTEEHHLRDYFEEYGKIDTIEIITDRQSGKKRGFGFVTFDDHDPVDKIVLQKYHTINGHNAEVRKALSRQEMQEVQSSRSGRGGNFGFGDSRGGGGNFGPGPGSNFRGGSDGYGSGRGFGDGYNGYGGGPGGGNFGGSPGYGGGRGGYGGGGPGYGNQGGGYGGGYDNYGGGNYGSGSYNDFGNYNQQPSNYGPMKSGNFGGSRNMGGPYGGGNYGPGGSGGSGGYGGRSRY
UniProt P06241: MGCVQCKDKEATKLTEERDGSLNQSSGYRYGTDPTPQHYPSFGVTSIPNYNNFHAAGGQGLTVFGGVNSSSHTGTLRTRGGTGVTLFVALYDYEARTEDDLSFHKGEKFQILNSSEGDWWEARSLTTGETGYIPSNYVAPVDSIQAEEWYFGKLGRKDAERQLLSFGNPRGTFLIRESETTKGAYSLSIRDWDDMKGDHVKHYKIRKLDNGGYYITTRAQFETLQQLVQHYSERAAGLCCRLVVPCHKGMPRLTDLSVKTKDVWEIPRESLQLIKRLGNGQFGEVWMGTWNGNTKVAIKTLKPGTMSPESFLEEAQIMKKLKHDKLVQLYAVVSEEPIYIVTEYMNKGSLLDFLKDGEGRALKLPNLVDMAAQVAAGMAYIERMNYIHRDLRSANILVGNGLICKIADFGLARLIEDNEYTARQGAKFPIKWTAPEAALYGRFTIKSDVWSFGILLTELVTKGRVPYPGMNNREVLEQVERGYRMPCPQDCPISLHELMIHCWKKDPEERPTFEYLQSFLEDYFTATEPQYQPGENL

How the values were obtained:
[1] = target: FLAG/HA-tagged Ago2 (UniProt Q9UKV8); assay: co-IP; FLAG/HA-Ago2 precipitated with anti-FLAG M2 magnetic beads from lysate of Oli-neu cells overexpressing FLAG/HA-Ago2 and A2-Myc/His or eGFP; 2 h at 4°C, washed three times with lysis buffer (50 mM Tris, 150 mM NaCl, 1 mM EDTA, 1% Triton X-100), eluted with FLAG peptide; Western blot (HA, Myc, GAPDH, β-Actin)
[2] = target: Myc- and His-tagged Ago2 (UniProt Q9UKV8); assay: pull-down; His isolation of Ago2-Myc/His with Dynabeads His Tag Isolation and Pulldown (cobalt) beads from lysate of HEK293T cells co-transfected with eGFP, FynWT or Fyn+; 30 min at RT, 300 mM NaCl, 150 mM imidazole, 1% Triton X100; washes with 500 mM and 2 M imidazole; Western blot for pTyr, Myc and active Fyn (Src418)
[3] = target: FLAG/HA-tagged Ago2 (UniProt Q9UKV8); assay: co-IP; FLAG/HA-Ago2 precipitated with anti-FLAG M2 magnetic beads from lysate of Oli-neu cells co-transfected with FLAG/HA-Ago2 and eGFP or FynWT; Western blot for pTyr (4G10), HA, active Fyn (SrcpY418) and GAPDH

binding [1]: binds
Substance: Myc/His-tagged hnRNP A2 (from UniProt O88569-2 1-341)

binding [2]: binds
Substance: wild-type Fyn (FynWT), active Fyn, in HEK293T cells (from UniProt P06241 1-537) (enzyme)

binding [3]: binds
Substance: wild-type Fyn (FynWT), active Fyn, in Oli-neu cells (from UniProt P06241 1-537) (enzyme)
